Reference: PubChem BioAssay AID493014 (National Center for Advancing Translational Sciences (NCATS), 2011)
The other results are listed elsewhere or left out. Further columns of the screen follow, without active or inactive calls. The list favours compounds with an active or inconclusive main result. The note in brackets gives the kind of curve behind each potency; many fits are weak.

Experiment: qHTS Assay to Find Inhibitors of Chronic Active B-Cell Receptor Signaling
Details: ABC-DLBCL IkBa-CBG/CBR reporter, luminescence ratio (green luciferase fused to IkBa over red control in TMD8 lymphoma cells), 4 h
Procedure, shortened: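 Cell line TMD8 (human ABC DLBCL), stably expressing tet-inducible CBG68-IkBa fusion and CBR; IMDM/0.5% FBS; cpd up to 46 uM; dox induction, 4 h, 37C/5% CO2; dual luminescence; green/red ratio; MG132 control.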

[1] = measured here: CBR red luminescence, cell number
[2] = measured here: IkBa-CBG green luminescence

SMILES | AC50 [1] | AC50 [2]
Cc1nc2cc(-c3ccccc3)nn2c(C)c1CCC(=O)N1CCN(c2ccccc2)CC1 | 6.51 µM [falling, full curve, poor fit] | 
CCOc1cccc(C(=O)Nc2cccc(-c3nnc(-c4ccccc4)o3)c2)c1 | 0.891 µM [rising, full curve, poor fit] | 
O=C(CN1C(=O)C(=O)N(C2CCCC2)C1=O)Nc1ccc(OC(F)F)cc1 | 18.4 µM [rising, single point] | 
CC[C@@]1(O)C(=O)OCc2c1cc1n(c2=O)Cc2cc3c(N)cccc3nc2-1 | 1.41 µM [falling, full curve] | 0.794 µM [rising, partial curve, poor fit]
Cc1cccc(/C(N)=N/OC(=O)Cc2cccs2)c1 | 1.26 µM [rising, partial curve, poor fit] | 
c1cc2c(cc1-c1[nH]ncc1CN1CC3C[C@@H]4CC1C[C@H](C3)C4)OCO2 | 25.1 µM [falling, single point] | 
CC(=O)c1c(C)[nH]c(C(=O)Nc2cccc(S(=O)(=O)N(C)c3ccccc3)c2)c1C | 35.5 µM [falling, single point] | 
O=C(NCc1ccco1)Nc1ccccc1Cl | 6.51 µM [rising, single point] | 
CCN(CC)C(=O)CSc1nc2nc(C)cc(C)c2c(=O)[nH]1 | 7.31 µM [falling, full curve, poor fit] | 
Cc1cccc(NC(=S)N=Nc2c(O)n(C)c3ccc(S(=O)(=O)N4CCOCC4)cc23)c1 | 11.6 µM [rising, partial curve] | 14.6 µM [falling, partial curve]
Cc1ccc(S(=O)(=O)N/N=C2/CC(c3ccccc3)Oc3ccccc32)cc1[N+](=O)[O-] (stereo not drawn) | 0.461 µM [rising, full curve, poor fit] | 
Cc1cc(C(=O)COc2nncc3ccccc23)c(C)n1C | 17.8 µM [rising, single point] | 
O=C1[C@@H]2[C@H](Cc3ccc(O)cc3)N[C@]3(C(=O)Nc4ccccc43)[C@@H]2C(=O)N1c1ccc(F)cc1 | 8.91 µM [falling, partial curve, poor fit] | 
Oc1ccccc1Nc1ncnc2c1oc1ccccc12 | 20 µM [falling, partial curve, poor fit] | 
O=C(O)CCCCCNC(=O)c1ccc(C(=O)NCCCCCC(=O)O)cc1 | 4.47 µM [rising, full curve, poor fit] | 
COc1ccc(/C=N/Nc2nc(-c3ccc(C)cc3)c(C#N)c(=O)[nH]2)cc1 | 7.94 µM [falling, partial curve, poor fit] | 

Looked up by structure from above, two records:
SMILES | AC50 [1] | AC50 [2]
Cc1cccc(NC(=S)N=Nc2c(O)n(C)c3ccc(S(=O)(=O)N4CCOCC4)cc23)c1 | 11.6 µM [rising, partial curve] | 14.6 µM [falling, partial curve]
CCN(CC)C(=O)CSc1nc2nc(C)cc(C)c2c(=O)[nH]1 | 7.31 µM [falling, full curve, poor fit] | 
